Data published in PubChem BioAssay AID1745846 (National Center for Advancing Translational Sciences (NCATS), 2022).
Among all 1,400 compounds or so, about 30 (2%) were called active. Another 15% or so got no clear call; they are omitted. Calls come from the whole dose curve; as a rule, active = well fitted inhibition curve with a large enough effect; inconclusive = small, poorly fitted or top-dose-only effect; inactive = flat fitted curve, though single readings scatter. The list shows a part of the results.
% is set by controls: 0 for no effect and ±100 for the full control effect; potency is the fitted concentration of half-maximal effect.

Test: Firefly Luciferase Counterscreen for Inhibitors of ATXN expression
Details: luminescence; series mostly up to 57.5 µM; activity change, negative = inhibition: at the top concentration
How it was run: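 Recombinant firefly luciferase at 10 nM final in 50 mM Tris pH 7.5, 10 mM MgCl2, 0.05% BSA, 0.01% Tween20 with substrate; compounds up to 57 uM final, 10 min room temperature, end-point luminescence. Buffer-only wells define 100% inhibition.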
In the case of `O=C1c2cccc3cc([N+](=O)[O-])cc(c23)C(=O)N1CCN1CCCC1`, the “activity change, negative = inhibition” value is reported as inactive: 1.39%. In the case of `O=C(CCSc1nc2ccccc2s1)N/N=C/c1c(O)ccc2ccccc12`, the “activity change, negative = inhibition” value is reported as inactive: 3.04%. For `S=C(Nc1ccccc1)Nc1ccc(OCc2ccc(Cl)cc2Cl)cc1`, the “activity change, negative = inhibition” value was inactive: -8.77%. With `O=C(Nc1ccc(Cl)c([N+](=O)[O-])c1)c1ccc(NCCCN2CCOCC2)c([N+](=O)[O-])c1` the “activity change, negative = inhibition” value was inactive: 1.04%. With `COc1ccccc1Cc1c(-c2ccco2)nc2c(C)cc(Br)cn12` the Potency was active: 15.8 µM. In the case of `CS(=O)(=O)c1ccc(Nc2nc(C(N)Cc3ccc(C(F)(F)F)cc3)cs2)cc1` (configuration not stated), the “activity change, negative = inhibition” value is reported as inactive: -7.22%. With `CN1CCC(N(C)C(=O)c2ccc(Cl)c(S(=O)(=O)N3CCc4ccccc43)c2)CC1` the “activity change, negative = inhibition” value was inactive: 3.31%. With `N=c1n(CCCOc2ccccc2Cl)c2ccccc2n1CC(N)=O` the “activity change, negative = inhibition” value was inactive: -13.7%. In the case of `O=C(CN1C(=O)c2ccccc2S1(=O)=O)c1ccc(Cl)cc1Cl`, the Potency is reported as active: 0.562 µM. In the case of `COc1ccc2c(c1)CCCN2S(=O)(=O)c1ccc(Cl)cc1`, the “activity change, negative = inhibition” value is reported as inactive: 0.417%. For `Cc1cc(C)c2nc(NNC(=O)c3ccc(S(=O)(=O)N4CCc5ccccc5C4)cc3)sc2c1`, the “activity change, negative = inhibition” value was inactive: -16.6%. In the case of `COc1cc2nc(N(C)C)nc(N)c2cc1OC`, the “activity change, negative = inhibition” value is reported as inactive: -5.16%. With `Cc1nc2c(OCc3cc(Cl)cc(Cl)c3)cccn2c1N(C)C(=O)CCC1CCCC1` the “activity change, negative = inhibition” value was inactive: -6.24%. With `Cc1cc2oc3ccc(NCCC4CCCN4C)cc3c(=O)c2cc1C` (configuration not stated) the Potency was active: 6.31 µM. In the case of `Cc1sc2ncnc(NCC(O)c3ccc([N+](=O)[O-])cc3)c2c1C` (configuration not stated), the “activity change, negative = inhibition” value is reported as inactive: -0.514%. In the case of `COc1ccc(C2CC(c3cccc(Cl)c3)=NN2c2ccc(S(N)(=O)=O)cc2)cc1` (configuration not stated), the “activity change, negative = inhibition” value is reported as inactive: -6.69%. For `CC(C)(C)S(=O)(=O)/C(C#N)=N/Nc1ccc(Cl)cc1`, the “activity change, negative = inhibition” value was inactive: -16.2%. For `CN1CCC(NC(=O)c2cc(-c3cccc(Br)c3)nc3ccccc23)CC1`, the “activity change, negative = inhibition” value was inactive: -6.79%. With `COc1ccc(C(=O)N2CCN(c3nc(C4CC4)nc4sc(C)c(C)c34)CC2)cc1` the “activity change, negative = inhibition” value was inactive: -0.954%. With `CCC(CC)C(=O)c1c[nH]c(C(=O)NCc2ccccn2)c1` the “activity change, negative = inhibition” value was inactive: -2.54%. With `CC(=O)Oc1ccc(N(C(C)=O)S(=O)(=O)c2ccc(Cl)cc2)c2ccccc12` the “activity change, negative = inhibition” value was inactive: -17.1%. For `CC(=O)NC(c1ccco1)c1cc(Cl)c2cccnc2c1O` (configuration not stated), the “activity change, negative = inhibition” value was inactive: -13.4%. For `CC(C)C(=O)Nc1ccc(C(=O)N/N=C/c2cc(Br)cc(Br)c2O)cc1`, the “activity change, negative = inhibition” value was inactive: 0.779%. In the case of `Cc1cccn2c(=O)c3cc(C(=O)NCCN4CCOCC4)c(=N)n(Cc4ccc(F)cc4)c3nc12`, the “activity change, negative = inhibition” value is reported as inactive: -2.07%. With `Cc1ccnn1CC(=O)N/N=C/c1ccc([N+](=O)[O-])s1` the “activity change, negative = inhibition” value was inactive: -0.488%. In the case of `CC1=C(C(=O)N(C(C)C)C(C)C)CC(CC(=O)NC2CCCC2)C(=O)N1Cc1ccc(C(C)(C)C)cc1` (configuration not stated), the “activity change, negative = inhibition” value is reported as inactive: 1.8%. For `COc1ccc(/C(C)=N/NC(=O)c2cccc(S(=O)(=O)N3CCCC3)c2)c(O)c1`, the “activity change, negative = inhibition” value was inactive: -15.8%.
